# In PubChem BioAssay AID493014 (National Center for Advancing Translational Sciences (NCATS), 2011):
# Hit rate of the full screen: of about 340,000 compounds, about 170 (0.05%) were called active. The inconclusive results got no clear call from the source; some entries with a clear call stand among them for comparison. Calls come from the whole dose curve; as a rule, active = well fitted inhibition curve with a large enough effect in the signal ratio, with a control signal flat (not every such curve was filed as active); inconclusive = small, poorly fitted or top-dose-only effect, or effect the other way, or a change in a side signal; inactive = flat fitted curve, though single readings scatter; the % refers to the signal ratio. Potencies beside an inconclusive call are fits to weak or partial responses and may not hold up.
# Assay: qHTS Assay to Find Inhibitors of Chronic Active B-Cell Receptor Signaling;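 for activity change, negative = inhibition: plate controls were basal doxycycline-induced cells for no effect and cells given 10 µM MG132 for full effect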
# Details: ABC-DLBCL IkBa-CBG/CBR reporter, luminescence ratio (green luciferase fused to IkBa over red control in TMD8 lymphoma cells), 4 h; activity change, negative = inhibition: at 46.1 µM (top of the series) unless noted
# Summary of the method: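 Doxycycline induced both beetle luciferases in TMD8 lymphoma cells; IKK-driven degradation limits the IkappaBalpha-fused green signal, while red luminescence normalises for cell number and nonspecific effects. Compounds tested up to 46 uM, 4 hrs.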
# Potency is the fitted concentration of half-maximal effect.
Compound,Potency,"activity change, negative = inhibition"
Cc1cc(C(=O)Nc2cccc(-c3ccc(N4CCOCC4)nn3)c2)ccc1[N+](=O)[O-],"inconclusive: 29.1 µM [falling, partial curve, poor fit]",–
N/C(=N\NS(=O)(=O)c1cc(C(F)(F)F)cc(C(F)(F)F)c1)c1ccccn1,–,inconclusive: 5.78%
Cc1cnc(=O)[nH]c1SCc1ccc([N+](=O)[O-])cc1,–,inactive
CCCCCCNC(=O)c1cc(-c2ccco2)nc2ccccc12,–,inconclusive: 17.9%
COc1ccc(OC)c(/C=N/NC(=O)CCCC(=O)Nc2cccc(Br)c2)c1,–,inconclusive: 0.962%
COCCNC(=O)c1onc(CSc2cc(C)cc(C)c2)c1C(=O)O,–,inconclusive: 1.51%
Cc1c(-c2ccccc2)[n+](=O)c(-c2ccco2)c(C)n1[O-],"inconclusive: 6.51 µM [rising, single point]",–
CC(=O)c1ccc(N2CCC(c3cc(-c4ccc(Cl)cc4Cl)n[nH]3)CC2)c([N+](=O)[O-])c1,–,inconclusive: 16.3%
CN(C)c1ccc(/C=C2\SC(=O)N(CCc3nnc(N)s3)C2=O)cc1,"inconclusive: 31.6 µM [rising, partial curve]",–
O=c1cc(CSc2nnnn2-c2ccccc2)nc(Nc2ccc(F)cc2)[nH]1,–,inconclusive: -0.0938%
O=C(COc1ccc(Br)cc1)Nc1ccc(S(=O)(=O)Nc2ccccn2)cc1,"inconclusive: 35.5 µM [falling, single point]",–
COc1ccc(C2=NOC(CNC(N)=S)C2)cc1 (stereo not given),"inconclusive: 35.5 µM [falling, partial curve]",–
Cc1c(/C=N/NC(=O)c2cccnc2)c2ccccn2c1C(=O)c1ccc(F)cc1,–,inactive
Cc1cc(C(=O)N2CCC(Cc3ccccc3)CC2)ccc1[N+](=O)[O-],–,inactive
N#Cc1ccc(NC(=O)c2cccs2)nc1,"inconclusive: 15.8 µM [falling, partial curve, poor fit]",–
c1ccc2c(NCC3CCCO3)nc(N3CCOCC3)nc2c1 (stereo not given),–,inactive
O=C(Nc1ccc(Cl)c(Cl)c1)Nc1ccccc1O,"inconclusive: 11.2 µM [falling, partial curve]",–
CCOc1ccc(CCNC(=O)c2ccc(CSCc3ccccc3C)o2)cc1OCC,–,inconclusive: -12.4%
O=C(CSc1nc(=O)n(Cc2ccncc2)c2c1CCC2)Nc1cccc(F)c1,–,inactive
Cc1ccc(C(=O)OCc2nc(N)nc(Nc3ccccc3C)n2)cc1,–,inconclusive: -1.12%
COc1cc(OC)c2c(c1)OC(c1ccc(OC)c(OC)c1)C(O)C2=O (stereo not given),–,inconclusive: -3.37%
CCOC(=O)c1cccc(-n2cccc2/C=C2\NC(=O)N(CC(=O)O)C2=O)c1,–,inactive
COCC(=O)Nc1ccc(N(C)C)cc1,–,inconclusive: -2.4%
COc1ccc(-c2cc(C(F)(F)F)n3nc(C(=O)NCc4ccco4)cc3n2)cc1,"inconclusive: 31.6 µM [falling, single point]",–
C[C@@H](C(=O)NCCc1ccc(F)cc1)N1C(=O)N2CCc3c([nH]c4ccccc34)[C@@]2(C)C1=O,–,inconclusive: -9.44%
COc1ccccc1N1C(=O)c2ccc(C(=O)Nc3ccccc3O)cc2C1=O,–,inconclusive: -20.8%
O=C(Nc1ccc(Cl)cc1)Nc1nnc(SCc2ccccc2)s1,–,inconclusive: 14.7%

Compound,Potency,"activity change, negative = inhibition"
Cn1cccc1-c1cc(C(=O)N/N=C/c2ccccc2Cl)[nH]n1,"inconclusive: 12.6 µM [falling, partial curve, poor fit]",–
O=C(NNc1ncccc1-n1cccc1)c1ccc(Cl)cc1,–,inconclusive: 14.5%
COc1ccc(C(NC(=O)c2ccc(=O)[nH]c2)C(=O)Nc2ccc(C(C)C)cc2)cc1 (stereo not given),"inconclusive: 17.8 µM [falling, single point]",–
COc1ccc2cc(-c3ccccc3)c(=O)oc2c1,"inconclusive: 15.8 µM [falling, partial curve]",–
Cc1ccccc1CN1C(=O)c2ccccc2S(=O)c2ccc(C(=O)NCCCN3CCOCC3)cc21 (stereo not given),–,inconclusive: -10%
CC(NS(=O)(=O)c1ccc(OCC(=O)NCc2ccncc2)cc1)c1ccccc1 (stereo not given),–,inactive
CC1CCCC(NC(=O)CSC2CCCCC2)C1C (stereo not given),–,inconclusive: 3.95%
C=CC(=O)Nc1cccc(Oc2cc(Cl)nc3[nH]ccc23)c1,"inconclusive: 23.1 µM [falling, single point]",–
CCN(CC)Cc1cc(O)c(CN(CC)CC)cc1O,–,inactive
CCOC(=O)C1C(=O)Nc2nc3ccccc3n2C1C(C)C (stereo not given),–,inconclusive: -2.62%
COc1ccc(NC(=O)Cn2c(-c3ccc(F)cc3)cc(C(C)=O)c2C)c(OC)c1,–,inconclusive: 0.333%
CN(C)S(=O)(=O)c1cccc(NC(=O)c2ccc(COc3ccccc3)cc2)c1,"inconclusive: 25.1 µM [falling, single point]",–
COc1ccc(NC(=O)/C=C/c2cc(Br)ccc2OC)cc1,–,inactive
O=[N+]([O-])c1cc(/C=N/Nc2nc3ccccc3[nH]2)c(O)cc1O,"inconclusive: 2.06 µM [rising, full curve, poor fit]",–
CC(C)CCNC(=O)C(c1ccc(O)cc1)N(C(=O)C1COc2ccccc2O1)c1cccc(O)c1 (stereo not given),–,inconclusive: 10.2%
CCOc1cccc2cc(-c3nnc(NCc4ccco4)s3)c(=O)oc12,"inconclusive: 7.08 µM [falling, partial curve]",–
COc1c(C(=O)NNC(=O)c2ccccc2)csc1Br,"inconclusive: 22.4 µM [falling, partial curve]",–
CCOC(=O)/C=c1\s/c(=C\c2ccc(C)cc2)c(=O)n1CC(=O)NCc1ccco1,–,inactive
Clc1ccccc1-c1nn2c(COc3ccccc3)nnc2s1,–,inconclusive: 5.03%
Cc1ccc2nc(Nc3nc(-c4ccccc4)cc(=O)[nH]3)nc(C)c2c1,"inconclusive: 22.4 µM [falling, single point]",–
COc1ccc(C(=O)N(C)Cc2cnn(Cc3ccccc3)c2)cc1S(=O)(=O)N1CCOCC1,–,inconclusive: -18.2%
O=C(Nc1ccc(OC(F)F)c(Cl)c1)c1ccccn1,"inconclusive: 20 µM [falling, single point]",–
COc1cccc(/C=N/NC(=O)CNC(=O)COc2ccccc2)c1O,–,inactive
CCOc1ccc(NC(=O)c2c(NCc3cc(OC)c(OC)cc3OC)sc3c2CCCC3)cc1,"inconclusive: 15.8 µM [falling, single point]",–
Nc1c(Cl)ncnc1N/N=C/c1ccccn1,–,inconclusive: -11%
O=C(NN=C1CCC(=NNC(=O)c2ccccn2)CC1)c1ccccn1,"inconclusive: 35.5 µM [rising, single point]",–
CCS(=O)(=O)N1CCC(NC(=O)C(Cc2cc(OC)ccc2OC)NC(C)=O)CC1 (stereo not given),–,inconclusive: 5.46%

# Reprinted at random: three records from the list.
Compound,Potency,"activity change, negative = inhibition"
COc1c(C(=O)NNC(=O)c2ccccc2)csc1Br,"inconclusive: 22.4 µM [falling, partial curve]",–
CCS(=O)(=O)N1CCC(NC(=O)C(Cc2cc(OC)ccc2OC)NC(C)=O)CC1 (stereo not given),–,inconclusive: 5.46%
CC(NS(=O)(=O)c1ccc(OCC(=O)NCc2ccncc2)cc1)c1ccccc1 (stereo not given),–,inactive

# More compounds follow:

Compound,Potency,"activity change, negative = inhibition"
COc1ccc(Cl)cc1C(=O)N1CCC2(CC1)CC(=O)c1ccccc1O2,–,inconclusive: 4.04%
CCCC(=O)NC(c1ccccc1Cl)c1c(O)ccc2ccccc12 (stereo not given),–,inconclusive: -9.6%
COc1ccccc1NC(=O)/C=C/C(N)=O,–,inconclusive: 7.64%
COc1ccc(N(C(=O)Cc2cccs2)C(C(=O)NC2CCCC2)c2ccncc2)cc1OC (stereo not given),–,inactive
CCCNC(=O)c1cccc(Br)c1,–,inconclusive: -1.31%
O=C(CN1C(=O)COc2ccccc21)N1CCCc2ccccc21,"inconclusive: 6.51 µM [falling, partial curve, poor fit]",–
CCOc1ccc(C(=O)Nc2ccc(S(=O)(=O)NCC3CCCO3)cc2)cc1OCC (stereo not given),–,inconclusive: 0.956%
CCOc1ncccc1C(=O)NCC1COc2ccccc2O1 (stereo not given),–,inconclusive: 4.78%
COc1ccc(-c2csc(NC(=O)c3ccc(S(=O)(=O)N4CCc5ccccc5C4)cc3)n2)cc1,–,inactive
COc1ccc(C(=O)NCCSC2CCCCC2)cc1,–,inconclusive: 11.1%
CC(c1cc2ccccc2s1)N(O)C(N)=O (stereo not given),"inconclusive: 1.41 µM [rising, full curve]",–
CCN(CC)c1ccc(/C=C(\C#N)c2nc(-c3cccs3)c(NC(C)=O)s2)cc1,–,inactive
CN(C)c1ccc(NC(=O)CN2CCC(O)(c3ccccc3)CC2)cc1,–,inactive
Cc1ccccc1S(=O)(=O)Cc1ccc(C(=O)NCCN(CC(C)C)CC(C)C)o1,–,inconclusive: -0.892%
CCOc1ccc(NC(=O)CCSc2ccc3ccccc3n2)cc1,–,inconclusive: 19.5%
COc1ccc(OC)c(CN2CCN(c3ccc(S(=O)(=O)N4CCCC4)cn3)CC2)c1,–,inconclusive: 1.44%
CCOC(=O)C1CCN(C(=O)COc2ccc(Br)cc2Br)CC1,–,inconclusive: -12.5%
Cc1cc(NC(=O)CSc2nc3cc(Cl)ccc3o2)no1,–,inactive
CC(C)COc1ccc(C(=O)N(CC(=O)Nc2ccccc2C(F)(F)F)Cc2ccco2)cc1,–,inactive
Fc1ccccc1-c1nc(-c2ccncc2)no1,–,inconclusive: -8.66%
CCn1c(SCC(=O)Nc2cc(C(C)(C)C)nn2-c2ccccc2)nnc1-c1cccs1,–,inactive
CCOC(=O)c1c(S(=O)(=O)N2CCC(C(=O)NCc3ccccc3Cl)CC2)c(C)n(C)c1C,–,inactive
CCOC(=O)/C(=C\C=C1/Sc2ccccc2N1CC)C(C)=O,–,inactive
CN1CCc2c(sc3c2C(=O)NC(c2ccco2)N3)C1 (stereo not given),–,inconclusive: 1.85%
CC1CC(C)CN(C(=O)c2cccc3c2-c2ccccc2C3=O)C1 (stereo not given),–,inconclusive: 2.16%
COCCn1ccc2c(OCC(=O)Nc3cccc(C(F)(F)F)c3)cccc2c1=O,"inconclusive: 35.5 µM [falling, single point]",–

# Reformatted: entries from further up.
Compound | Potency | activity change, negative = inhibition
CCOc1ccc(NC(=O)CCSc2ccc3ccccc3n2)cc1 | – | inconclusive: 19.5%
Cc1cc(NC(=O)CSc2nc3cc(Cl)ccc3o2)no1 | – | inactive
CCOC(=O)/C(=C\C=C1/Sc2ccccc2N1CC)C(C)=O | – | inactive
COCCn1ccc2c(OCC(=O)Nc3cccc(C(F)(F)F)c3)cccc2c1=O | inconclusive: 35.5 µM [falling, single point] | –
